Reference: the supplement of paper PMC10849652
The list shows a part of the results.

Amino acid sequences for entries named in this document (tags omitted). A change or cut given only in a name is not applied to a line headed by its entry.
UniProt P34931, whole entry, looked up: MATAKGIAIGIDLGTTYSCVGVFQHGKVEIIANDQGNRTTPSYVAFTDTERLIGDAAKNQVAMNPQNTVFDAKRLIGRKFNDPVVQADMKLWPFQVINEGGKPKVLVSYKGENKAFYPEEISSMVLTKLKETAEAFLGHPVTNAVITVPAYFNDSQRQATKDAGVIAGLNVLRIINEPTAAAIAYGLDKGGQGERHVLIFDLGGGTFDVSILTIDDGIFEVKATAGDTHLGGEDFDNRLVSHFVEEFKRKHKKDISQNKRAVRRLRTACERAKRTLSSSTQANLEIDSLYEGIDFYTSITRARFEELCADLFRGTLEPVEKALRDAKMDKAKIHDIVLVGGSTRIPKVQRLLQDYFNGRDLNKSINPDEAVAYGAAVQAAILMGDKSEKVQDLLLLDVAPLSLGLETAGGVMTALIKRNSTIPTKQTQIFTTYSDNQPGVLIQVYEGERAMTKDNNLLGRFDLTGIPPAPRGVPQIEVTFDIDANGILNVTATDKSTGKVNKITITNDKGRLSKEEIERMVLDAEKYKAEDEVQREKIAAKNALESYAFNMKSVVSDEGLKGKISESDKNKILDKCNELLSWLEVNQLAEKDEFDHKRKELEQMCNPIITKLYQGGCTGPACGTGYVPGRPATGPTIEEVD
UniProt Q92598: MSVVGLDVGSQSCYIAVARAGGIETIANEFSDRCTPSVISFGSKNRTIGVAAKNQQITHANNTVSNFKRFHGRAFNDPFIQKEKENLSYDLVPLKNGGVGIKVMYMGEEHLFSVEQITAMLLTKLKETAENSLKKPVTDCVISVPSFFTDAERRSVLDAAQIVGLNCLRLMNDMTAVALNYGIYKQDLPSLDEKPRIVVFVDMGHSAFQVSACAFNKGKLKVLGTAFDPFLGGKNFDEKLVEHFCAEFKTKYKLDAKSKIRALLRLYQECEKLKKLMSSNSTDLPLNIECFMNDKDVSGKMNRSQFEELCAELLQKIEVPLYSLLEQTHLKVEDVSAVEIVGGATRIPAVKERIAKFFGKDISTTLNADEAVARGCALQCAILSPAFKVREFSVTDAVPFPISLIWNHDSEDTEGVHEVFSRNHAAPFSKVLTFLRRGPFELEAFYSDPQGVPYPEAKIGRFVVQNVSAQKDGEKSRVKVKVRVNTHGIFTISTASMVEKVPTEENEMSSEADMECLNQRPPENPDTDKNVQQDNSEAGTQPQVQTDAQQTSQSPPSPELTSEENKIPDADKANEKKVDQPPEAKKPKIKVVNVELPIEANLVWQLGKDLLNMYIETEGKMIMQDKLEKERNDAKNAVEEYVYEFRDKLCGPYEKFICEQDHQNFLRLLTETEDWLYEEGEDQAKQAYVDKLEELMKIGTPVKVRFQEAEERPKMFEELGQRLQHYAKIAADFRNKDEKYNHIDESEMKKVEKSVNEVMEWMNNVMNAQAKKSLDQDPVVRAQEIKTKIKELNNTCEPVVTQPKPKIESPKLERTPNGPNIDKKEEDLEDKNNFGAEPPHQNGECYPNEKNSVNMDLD
UniProt Q9Y547: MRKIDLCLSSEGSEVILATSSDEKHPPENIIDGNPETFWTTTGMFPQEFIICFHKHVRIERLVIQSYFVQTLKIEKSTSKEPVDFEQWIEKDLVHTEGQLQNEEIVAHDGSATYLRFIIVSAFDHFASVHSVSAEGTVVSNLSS
UniProt Q2TB90: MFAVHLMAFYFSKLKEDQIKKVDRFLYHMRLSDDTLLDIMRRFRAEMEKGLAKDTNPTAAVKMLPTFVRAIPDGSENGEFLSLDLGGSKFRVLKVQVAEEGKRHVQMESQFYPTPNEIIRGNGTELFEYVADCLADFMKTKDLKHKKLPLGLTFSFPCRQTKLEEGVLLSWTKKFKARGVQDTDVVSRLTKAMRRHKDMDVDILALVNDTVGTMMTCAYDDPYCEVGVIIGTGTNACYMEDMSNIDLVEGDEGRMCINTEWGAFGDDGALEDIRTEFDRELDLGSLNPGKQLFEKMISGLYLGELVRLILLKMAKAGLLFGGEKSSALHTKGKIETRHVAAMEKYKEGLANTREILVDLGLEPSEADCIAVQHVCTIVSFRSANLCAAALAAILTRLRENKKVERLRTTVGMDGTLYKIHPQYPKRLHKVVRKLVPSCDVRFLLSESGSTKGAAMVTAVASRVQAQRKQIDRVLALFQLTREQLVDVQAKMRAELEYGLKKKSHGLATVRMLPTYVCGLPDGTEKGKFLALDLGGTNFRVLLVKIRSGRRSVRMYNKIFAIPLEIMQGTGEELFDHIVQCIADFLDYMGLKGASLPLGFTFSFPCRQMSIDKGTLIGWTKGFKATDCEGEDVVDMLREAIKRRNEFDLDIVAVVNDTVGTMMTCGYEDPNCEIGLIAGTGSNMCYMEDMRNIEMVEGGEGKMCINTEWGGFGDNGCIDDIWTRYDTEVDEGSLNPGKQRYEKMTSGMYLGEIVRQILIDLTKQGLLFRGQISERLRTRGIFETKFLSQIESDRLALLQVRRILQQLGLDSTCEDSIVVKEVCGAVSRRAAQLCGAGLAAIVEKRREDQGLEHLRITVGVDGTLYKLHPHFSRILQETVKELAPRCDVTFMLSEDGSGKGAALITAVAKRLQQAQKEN
UniProt Q9NP66: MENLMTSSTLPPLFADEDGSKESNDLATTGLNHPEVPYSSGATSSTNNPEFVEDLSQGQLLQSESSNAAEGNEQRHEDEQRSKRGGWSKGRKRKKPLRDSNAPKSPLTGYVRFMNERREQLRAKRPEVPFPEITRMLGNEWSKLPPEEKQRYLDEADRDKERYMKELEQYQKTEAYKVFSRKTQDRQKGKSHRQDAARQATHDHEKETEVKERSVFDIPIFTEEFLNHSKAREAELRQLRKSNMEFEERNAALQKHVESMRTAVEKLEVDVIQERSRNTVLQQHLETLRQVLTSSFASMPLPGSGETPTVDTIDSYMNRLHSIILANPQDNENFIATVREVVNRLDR
UniProt O15347: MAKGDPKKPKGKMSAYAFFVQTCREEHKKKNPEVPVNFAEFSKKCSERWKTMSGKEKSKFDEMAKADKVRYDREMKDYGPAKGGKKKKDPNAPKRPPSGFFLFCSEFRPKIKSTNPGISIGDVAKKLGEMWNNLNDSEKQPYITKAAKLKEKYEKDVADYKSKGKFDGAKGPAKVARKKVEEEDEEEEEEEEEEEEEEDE
UniProt P41252: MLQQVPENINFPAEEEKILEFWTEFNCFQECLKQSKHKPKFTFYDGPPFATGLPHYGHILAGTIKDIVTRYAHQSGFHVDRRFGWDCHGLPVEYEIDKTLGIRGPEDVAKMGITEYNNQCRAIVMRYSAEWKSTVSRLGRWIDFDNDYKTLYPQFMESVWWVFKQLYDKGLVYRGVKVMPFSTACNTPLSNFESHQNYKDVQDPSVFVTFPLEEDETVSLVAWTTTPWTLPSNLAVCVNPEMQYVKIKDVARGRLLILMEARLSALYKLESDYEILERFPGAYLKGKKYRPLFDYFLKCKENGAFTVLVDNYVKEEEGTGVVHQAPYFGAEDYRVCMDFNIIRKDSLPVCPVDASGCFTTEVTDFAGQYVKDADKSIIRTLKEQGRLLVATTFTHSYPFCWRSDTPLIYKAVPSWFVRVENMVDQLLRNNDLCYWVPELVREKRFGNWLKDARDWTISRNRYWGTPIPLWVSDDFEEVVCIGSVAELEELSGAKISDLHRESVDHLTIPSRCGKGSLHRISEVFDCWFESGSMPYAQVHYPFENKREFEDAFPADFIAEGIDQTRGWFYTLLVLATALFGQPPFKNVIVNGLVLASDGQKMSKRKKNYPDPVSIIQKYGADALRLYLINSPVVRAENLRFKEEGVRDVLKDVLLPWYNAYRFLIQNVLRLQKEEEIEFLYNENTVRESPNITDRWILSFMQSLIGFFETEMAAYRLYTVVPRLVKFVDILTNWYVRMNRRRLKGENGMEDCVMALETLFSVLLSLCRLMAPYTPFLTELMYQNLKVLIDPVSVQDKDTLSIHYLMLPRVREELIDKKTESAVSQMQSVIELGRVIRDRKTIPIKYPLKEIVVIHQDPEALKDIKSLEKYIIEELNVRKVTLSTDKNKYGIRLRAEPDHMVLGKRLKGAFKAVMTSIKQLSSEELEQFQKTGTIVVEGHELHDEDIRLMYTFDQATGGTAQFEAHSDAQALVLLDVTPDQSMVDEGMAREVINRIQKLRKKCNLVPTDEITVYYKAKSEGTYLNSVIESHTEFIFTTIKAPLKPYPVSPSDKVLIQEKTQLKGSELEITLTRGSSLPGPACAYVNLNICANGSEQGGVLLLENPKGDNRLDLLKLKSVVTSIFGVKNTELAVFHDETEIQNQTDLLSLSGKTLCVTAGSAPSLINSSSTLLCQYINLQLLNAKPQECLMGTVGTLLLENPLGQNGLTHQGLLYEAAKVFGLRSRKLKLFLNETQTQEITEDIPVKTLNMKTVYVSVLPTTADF
UniProt Q9BUP3: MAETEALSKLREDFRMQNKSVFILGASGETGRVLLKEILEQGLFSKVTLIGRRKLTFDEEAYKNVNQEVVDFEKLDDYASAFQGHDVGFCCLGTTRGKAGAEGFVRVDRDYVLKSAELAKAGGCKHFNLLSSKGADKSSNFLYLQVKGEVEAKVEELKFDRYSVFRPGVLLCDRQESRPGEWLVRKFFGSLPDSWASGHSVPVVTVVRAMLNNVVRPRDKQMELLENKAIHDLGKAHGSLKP
UniProt Q7LGA3: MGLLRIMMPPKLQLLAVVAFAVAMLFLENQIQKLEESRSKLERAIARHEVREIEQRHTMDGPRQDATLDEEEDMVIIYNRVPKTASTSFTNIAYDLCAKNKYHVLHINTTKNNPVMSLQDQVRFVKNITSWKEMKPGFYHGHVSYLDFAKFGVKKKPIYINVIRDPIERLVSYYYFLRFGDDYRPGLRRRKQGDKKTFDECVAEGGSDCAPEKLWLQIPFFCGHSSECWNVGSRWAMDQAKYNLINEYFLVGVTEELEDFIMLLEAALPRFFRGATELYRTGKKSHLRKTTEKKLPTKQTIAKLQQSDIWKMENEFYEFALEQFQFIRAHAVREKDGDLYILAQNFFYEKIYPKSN
UniProt P14735, whole entry, looked up: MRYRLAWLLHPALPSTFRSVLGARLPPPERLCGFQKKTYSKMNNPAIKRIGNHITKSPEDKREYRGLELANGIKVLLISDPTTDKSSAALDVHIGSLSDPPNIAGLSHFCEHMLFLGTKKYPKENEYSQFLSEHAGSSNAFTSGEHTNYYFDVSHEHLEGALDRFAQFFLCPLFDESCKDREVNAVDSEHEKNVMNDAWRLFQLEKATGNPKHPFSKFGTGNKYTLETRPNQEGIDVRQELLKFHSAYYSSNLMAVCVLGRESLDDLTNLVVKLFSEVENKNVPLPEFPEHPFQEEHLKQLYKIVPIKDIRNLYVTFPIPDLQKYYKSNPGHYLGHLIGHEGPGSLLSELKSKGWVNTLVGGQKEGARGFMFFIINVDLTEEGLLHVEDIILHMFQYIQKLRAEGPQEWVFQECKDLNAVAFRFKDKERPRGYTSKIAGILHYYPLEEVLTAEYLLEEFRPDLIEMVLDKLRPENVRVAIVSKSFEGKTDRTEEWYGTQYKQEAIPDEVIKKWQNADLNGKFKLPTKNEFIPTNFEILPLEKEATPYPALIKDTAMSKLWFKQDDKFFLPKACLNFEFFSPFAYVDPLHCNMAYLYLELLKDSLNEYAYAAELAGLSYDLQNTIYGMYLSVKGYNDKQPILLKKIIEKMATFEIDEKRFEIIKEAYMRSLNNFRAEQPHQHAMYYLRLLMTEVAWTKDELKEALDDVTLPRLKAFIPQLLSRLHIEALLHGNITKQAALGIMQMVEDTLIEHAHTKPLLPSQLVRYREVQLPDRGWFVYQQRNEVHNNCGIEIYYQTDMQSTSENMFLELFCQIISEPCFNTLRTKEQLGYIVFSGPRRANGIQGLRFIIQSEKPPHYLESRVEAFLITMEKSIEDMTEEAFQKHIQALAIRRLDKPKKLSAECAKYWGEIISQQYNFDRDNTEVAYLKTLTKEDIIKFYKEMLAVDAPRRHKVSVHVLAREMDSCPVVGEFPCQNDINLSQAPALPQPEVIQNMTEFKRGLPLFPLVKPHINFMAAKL
UniProt P52597: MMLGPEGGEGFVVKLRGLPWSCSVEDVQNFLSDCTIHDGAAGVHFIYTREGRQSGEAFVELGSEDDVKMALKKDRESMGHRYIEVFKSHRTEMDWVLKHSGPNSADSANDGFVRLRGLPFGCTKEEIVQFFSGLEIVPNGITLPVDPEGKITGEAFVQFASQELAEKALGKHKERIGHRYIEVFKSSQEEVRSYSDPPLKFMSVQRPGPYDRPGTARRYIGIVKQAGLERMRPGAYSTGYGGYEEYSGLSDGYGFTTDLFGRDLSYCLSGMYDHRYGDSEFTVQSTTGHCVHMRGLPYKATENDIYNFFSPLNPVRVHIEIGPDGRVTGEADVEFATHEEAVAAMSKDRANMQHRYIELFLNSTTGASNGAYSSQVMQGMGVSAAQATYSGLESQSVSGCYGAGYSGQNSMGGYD
UniProt Q9NQE9: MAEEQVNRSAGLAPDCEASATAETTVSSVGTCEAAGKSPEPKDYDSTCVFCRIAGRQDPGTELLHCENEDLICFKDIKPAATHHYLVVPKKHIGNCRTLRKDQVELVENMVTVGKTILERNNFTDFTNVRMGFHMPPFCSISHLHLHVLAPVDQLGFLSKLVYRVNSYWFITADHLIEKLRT

What follows are targets tested with COC1=CC=C(C=C1)CN2C=CC3=C2C=C(C=C3)C(=O)NO (assay: log2 fold change, soluble protein after heating vs DMSO (PISA); higher = thermal stabilisation; K562 cells, 10 uM, 30 min; active = over 0.2 and 3.5 SD of the protein, either way, in both replicates (recomputed)).
Outline: (§1)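 Thermal stability values are relative to control samples and come from duplicates. They are expressed as log2 fold changes. For measurement, K562 cells (2×10^6 cells/mL) received 10 μM compound for 30 min, and aliquots were heated for 3 min over 48°C-58°C, pooled, and extracted at 4°C in PBS with 0.5% NP-40. Soluble protein, the supernatant after 21,000xg for 90 min, was quantified by TMTpro 16plex LC-MS/MS with equalised channel sums.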

Target | log2 fold change
HNRNPLL (UniProt Q8WVV9) | inactive: 0.136
HYOU1 (UniProt Q9Y4L1) | inactive: -0.036
HSPA1L (UniProt P34931) | inactive: -0.191
HSP90AB1 (UniProt P08238) | inactive: 0.046
HMGA1 (UniProt P17096) | inactive: -0.024
HMGCR isoform 3 (UniProt P04035) | inactive: -0.097
HSPH1 (UniProt Q92598) | inactive: 0.056
HIST2H2BF isoform 2 (UniProt Q5QNW6) | inactive: 0.062
HNRNPU (UniProt Q00839) | inactive: 0.004
HINT2 (UniProt Q9BX68) | inactive: -0.104
HOMER1 (UniProt Q86YM7) | inactive: 0.168
HSPB11 (UniProt Q9Y547) | inactive: 0.025
HKDC1 (UniProt Q2TB90) | inactive: -0.089
HUWE1 (UniProt Q7Z6Z7) | inactive: -0.001
HMG20A (UniProt Q9NP66) | inactive: -0.045
HMGB3 (UniProt O15347) | inactive: 0.037
HSPA14 (UniProt Q0VDF9) | inactive: -0.03

Target | log2 fold change
IARS (UniProt P41252) | inactive: -0.023
HTATIP2 isoform 3 (UniProt Q9BUP3) | inactive: -0.003
HNRNPK isoform 2 (UniProt P61978) | inactive: 0.008
HS2ST1 (UniProt Q7LGA3) | inactive: -0.122
HK2 (UniProt P52789) | inactive: 0.035
IDE (UniProt P14735) | inactive: 0.015
HNRNPD isoform 4 (UniProt Q14103) | inactive: 0.023
IARS2 (UniProt Q9NSE4) | inactive: 0.026
HNRNPC isoform 2 (UniProt P07910) | inactive: 0.009
HNRNPF (UniProt P52597) | inactive: 0.059
HINT3 (UniProt Q9NQE9) | inactive: -0.033
HSPA4L (UniProt O95757) | inactive: -0.028
HIST2H3A (UniProt Q71DI3) | inactive: 0.037
HMGN2 (UniProt P05204) | inactive: 0.01
HMOX2 (UniProt P30519) | active: 0.444
HSPG2 (UniProt P98160) | inactive: -0.06

What follows are targets tested with CON(C)C(=O)N1N=C(c2cc(F)ccc2F)S[C@@]1(CCCN)c1ccccc1 [filanesib] in the same assay as above.
Outline: as §1

Target | log2 fold change
HNRNPLL (UniProt Q8WVV9) | inactive: 0.073
HYOU1 (UniProt Q9Y4L1) | inactive: 0.016
HSPA1L (UniProt P34931) | inactive: 0.07
HSP90AB1 (UniProt P08238) | inactive: -0.096
HMGA1 (UniProt P17096) | inactive: 0.13
HMGCR isoform 3 (UniProt P04035) | inactive: -0.027
HSPH1 (UniProt Q92598) | inactive: -0.017
HIST2H2BF isoform 2 (UniProt Q5QNW6) | inactive: 0.248
HNRNPU (UniProt Q00839) | inactive: 0.267
HINT2 (UniProt Q9BX68) | inactive: -0.005
HOMER1 (UniProt Q86YM7) | inactive: 0.051
HSPB11 (UniProt Q9Y547) | inactive: -0.062
HKDC1 (UniProt Q2TB90) | inactive: -0.052
HUWE1 (UniProt Q7Z6Z7) | inactive: -0.007
HMG20A (UniProt Q9NP66) | inactive: 0.05
HMGB3 (UniProt O15347) | inactive: -0.001
HSPA14 (UniProt Q0VDF9) | inactive: 0.072

Target | log2 fold change
IARS (UniProt P41252) | inactive: 0.417
HTATIP2 isoform 3 (UniProt Q9BUP3) | inactive: -0.091
HNRNPK isoform 2 (UniProt P61978) | inactive: -0.001
HS2ST1 (UniProt Q7LGA3) | inactive: 0.066
HK2 (UniProt P52789) | inactive: 0.031
IDE (UniProt P14735) | inactive: -0.004
HNRNPD isoform 4 (UniProt Q14103) | inactive: 0.29
IARS2 (UniProt Q9NSE4) | inactive: -0.068
HNRNPC isoform 2 (UniProt P07910) | inactive: 0.39
HNRNPF (UniProt P52597) | inactive: -0.03
HINT3 (UniProt Q9NQE9) | inactive: -0.048
HSPA4L (UniProt O95757) | inactive: -0.012
HIST2H3A (UniProt Q71DI3) | inactive: 0.268
HMGN2 (UniProt P05204) | inactive: -0.043
HMOX2 (UniProt P30519) | inactive: 0.085
HSPG2 (UniProt P98160) | inactive: 0.011

These targets were tested with CO[C@H]1C[C@@H]2CC[C@@H](C)[C@@](O)(O2)C(=O)C(=O)N2CCCC[C@H]2C(=O)O[C@H]([C@H](C)C[C@@H]2CC[C@H](n3cnnn3)[C@H](OC)C2)CC(=O)[C@H](C)/C=C(\C)[C@@H](O)[C@@H](OC)C(=O)[C@H](C)C[C@H](C)/C=C/C=C/C=C/1C [zotarolimus] in the same assay as above.
Outline: as §1

Target | log2 fold change
HNRNPLL (UniProt Q8WVV9) | inactive: -0.003
HYOU1 (UniProt Q9Y4L1) | inactive: 0.044
HSPA1L (UniProt P34931) | inactive: -0.004
HSP90AB1 (UniProt P08238) | inactive: 0.052
HMGA1 (UniProt P17096) | inactive: -0.019
HMGCR isoform 3 (UniProt P04035) | inactive: 0
HSPH1 (UniProt Q92598) | inactive: 0.045
HIST2H2BF isoform 2 (UniProt Q5QNW6) | inactive: -0.163
HNRNPU (UniProt Q00839) | inactive: -0.024
HINT2 (UniProt Q9BX68) | inactive: 0.068
HOMER1 (UniProt Q86YM7) | inactive: 0.043
HSPB11 (UniProt Q9Y547) | inactive: -0.005
HKDC1 (UniProt Q2TB90) | inactive: -0.018
HUWE1 (UniProt Q7Z6Z7) | inactive: 0.037
HMG20A (UniProt Q9NP66) | inactive: 0.078
HMGB3 (UniProt O15347) | inactive: 0.012
HSPA14 (UniProt Q0VDF9) | inactive: 0.012

Target | log2 fold change
IARS (UniProt P41252) | inactive: 0.081
HTATIP2 isoform 3 (UniProt Q9BUP3) | active: 0.364
HNRNPK isoform 2 (UniProt P61978) | inactive: -0.022
HS2ST1 (UniProt Q7LGA3) | inactive: -0.017
HK2 (UniProt P52789) | inactive: 0.03
IDE (UniProt P14735) | inactive: 0.017
HNRNPD isoform 4 (UniProt Q14103) | inactive: -0.038
IARS2 (UniProt Q9NSE4) | inactive: -0.029
HNRNPC isoform 2 (UniProt P07910) | inactive: -0.024
HNRNPF (UniProt P52597) | inactive: 0.046
HINT3 (UniProt Q9NQE9) | inactive: -0.017
HSPA4L (UniProt O95757) | inactive: 0.037
HIST2H3A (UniProt Q71DI3) | inactive: -0.167
HMGN2 (UniProt P05204) | inactive: -0.048
HMOX2 (UniProt P30519) | inactive: 0.027
HSPG2 (UniProt P98160) | inactive: -0.013
